{"sequences": {"note": "The chains behind the UniProt entries cited, without tags or fusion partners. Where a name states a change or a piece, a line headed by the entry shows the natural chain unless it says otherwise. Residues count along the entry.", "UniProt P06103": "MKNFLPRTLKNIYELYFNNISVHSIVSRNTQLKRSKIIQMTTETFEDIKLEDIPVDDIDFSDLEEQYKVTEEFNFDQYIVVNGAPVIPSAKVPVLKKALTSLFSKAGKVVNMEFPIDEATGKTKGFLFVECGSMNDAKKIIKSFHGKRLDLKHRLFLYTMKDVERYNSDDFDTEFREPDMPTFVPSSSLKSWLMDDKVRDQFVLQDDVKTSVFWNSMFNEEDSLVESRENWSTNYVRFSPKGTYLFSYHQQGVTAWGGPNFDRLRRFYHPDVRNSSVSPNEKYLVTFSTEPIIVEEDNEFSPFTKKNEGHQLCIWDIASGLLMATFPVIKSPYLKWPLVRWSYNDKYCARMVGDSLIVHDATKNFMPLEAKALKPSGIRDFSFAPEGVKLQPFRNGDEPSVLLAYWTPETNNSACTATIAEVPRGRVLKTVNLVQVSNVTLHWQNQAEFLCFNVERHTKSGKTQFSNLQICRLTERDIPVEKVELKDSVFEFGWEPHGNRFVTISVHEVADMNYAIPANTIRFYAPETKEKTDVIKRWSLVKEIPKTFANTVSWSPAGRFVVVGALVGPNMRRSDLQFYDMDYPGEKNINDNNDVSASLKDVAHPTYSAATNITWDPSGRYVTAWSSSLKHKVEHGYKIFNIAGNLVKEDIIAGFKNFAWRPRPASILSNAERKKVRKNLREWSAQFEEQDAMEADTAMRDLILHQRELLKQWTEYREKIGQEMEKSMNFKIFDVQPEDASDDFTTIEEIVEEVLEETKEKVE", "UniProt Q05775": "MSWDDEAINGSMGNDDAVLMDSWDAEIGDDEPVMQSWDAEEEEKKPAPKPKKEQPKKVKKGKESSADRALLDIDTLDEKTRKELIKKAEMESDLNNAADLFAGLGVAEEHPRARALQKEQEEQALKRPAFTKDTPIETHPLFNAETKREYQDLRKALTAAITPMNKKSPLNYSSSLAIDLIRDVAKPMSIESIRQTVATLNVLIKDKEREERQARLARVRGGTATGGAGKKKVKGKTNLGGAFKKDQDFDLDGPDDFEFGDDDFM", "GST-j/hcr1-NTD [1-135]": "residues 1-135 of Q05775", "GST-j/hcr1-CTD [136-265]": "residues 136-265 of Q05775", "UniProt P38431": "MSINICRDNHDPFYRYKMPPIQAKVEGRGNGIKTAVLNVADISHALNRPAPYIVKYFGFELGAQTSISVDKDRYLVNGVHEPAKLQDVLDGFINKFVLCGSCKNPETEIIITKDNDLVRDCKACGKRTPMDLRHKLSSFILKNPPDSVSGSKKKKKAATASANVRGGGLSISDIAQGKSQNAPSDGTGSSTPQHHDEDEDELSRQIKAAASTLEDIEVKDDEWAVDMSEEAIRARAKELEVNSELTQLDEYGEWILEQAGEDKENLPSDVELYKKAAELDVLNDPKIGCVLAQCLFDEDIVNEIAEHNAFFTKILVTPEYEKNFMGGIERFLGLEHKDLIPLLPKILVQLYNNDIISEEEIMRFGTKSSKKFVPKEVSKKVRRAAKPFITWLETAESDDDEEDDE"}, "source": "paper PMC2824034", "about": "“The indispensable N-terminal half of eIF3j/HCR1 co-operates with its structurally conserved binding partner eIF3b/PRT1-RRM and eIF1A in stringent AUG selection” (Journal of molecular biology, 2010)", "key": {"[1]": {"target": "b/PRT1-His (S. cerevisiae) (UniProt P06103)", "test": "pull-down; Ni2+-chelation chromatography of yeast whole-cell extracts with His8-tagged b/PRT1 as bait (Ni2+-NTA-silica resin, buffer A, 2 h, 4°C); eluates analysed by Western blot"}, "[2]": {"target": "GST-j/hcr1-NTD [1-135] (S. cerevisiae) (UniProt Q05775)", "test": "pull-down; GST fusions from E. coli immobilized on glutathione-Sepharose beads, incubated with 10 μl of in vitro-synthesized 35S-labeled partner at 4°C for 2 h; washed 3 times with phosphate-buffered saline; SDS-PAGE, autoradiography; only the target purified"}, "[3]": {"target": "GST-j/HCR1 (S. cerevisiae) (UniProt Q05775)", "test": "pull-down; GST fusions from E. coli immobilized on glutathione-Sepharose beads, incubated with 10 μl of in vitro-synthesized 35S-labeled partner at 4°C for 2 h; washed 3 times with phosphate-buffered saline; SDS-PAGE, autoradiography; only the target purified"}, "[4]": {"target": "GST-j/hcr1-CTD [136-265] (S. cerevisiae) (UniProt Q05775)", "test": "pull-down; GST fusions from E. coli immobilized on glutathione-Sepharose beads, incubated with 10 μl of in vitro-synthesized 35S-labeled partner at 4°C for 2 h; washed 3 times with phosphate-buffered saline; SDS-PAGE, autoradiography; only the target purified"}}, "note": "No constants are given. Whether binding was seen depends on the method and setting. In cells and extracts the contact can be indirect. For some assays here: Binding can be weak; no strength is given.", "data": [{"substance": "j/HCR1 (wt, untagged, in yeast whole-cell extract) (from UniProt Q05775 1-265)", "values": [{"measurement": "binding", "setting": "[1]", "result": "binds"}]}, {"substance": "eIF5 (from UniProt P38431 1-405)", "values": [{"measurement": "binding", "setting": "[1]", "result": "binds"}]}, {"substance": "35S-labeled wt b/prt1-RRM [1-136] (from UniProt P06103) (domain or fragment)", "values": [{"measurement": "binding", "setting": "[2]", "result": "binds"}, {"measurement": "binding", "setting": "[3]", "result": "binds"}, {"measurement": "binding", "setting": "[4]", "result": "no binding"}]}]}
